Assay results taken from patent US20200254014A1, “ANTIMICROBIAL COMPOSITIONS AND METHODS FOR THEIR PRODUCTION” (National University of Ireland, Galway, priority 2013, published 2020).
At least one structure is not confirmed: it was looked up by name or label, or the drawing left a doubt.

Tested on: E. coli ATCC 25922
Type: cell-based
Details: after only 8 passages
Procedure: In an attempt to induce a tolerance to an antimicrobial, the micro-broth dilution method was utilised, with repeated passaging, with E. coli ATCC 25922 and a number of antibiotics, as well as the composition of the invention containing hydrogen peroxide and potassium iodide. […] Doubling dilutions of antimicrobial compositions were made using a 96 well plate. The well contents were inoculated with 10^4 cfu ml^−1 E. coli ATCC 25922 and allowed to incubate.

SMILES: NC[C@H]1O[C@H](O[C@H]2[C@H](O)[C@@H](O[C@H]3O[C@H](CO)[C@@H](O)[C@H](N)[C@H]3O)[C@H](N)C[C@@H]2N)[C@H](O)[C@@H](O)[C@@H]1O [kanamycin]
- resistance of the organism after passaging in presence of the antibiotic: completely resistant
